Data on 39 molecules can be found in patent US8841077B2, “Biomarkers for amyotrophic lateral sclerosis and methods using the same” (Massachusetts General Hospital, priority 2006, dated 2014).

This series is described as follows: Metabolomic profiling (GC-MS/LC-MS) of CSF samples, ALS subjects vs control subjects (Example 1; Tables 3, 4). In kind it is in vivo, human.
Where [1] appears, read: CSF, ALS mean as compared to control mean, T-tests of ALS vs. Controls.
[2] abbreviates: CSF, ALS mean as compared to the control mean.
[3] abbreviates: CSF, mean in ALS samples as compared to control samples.
Setting [4] is: CSF, mean in ALS samples vs control samples, T-tests.

`O=C1CC[C@@H](C(=O)O)N1` [5-oxoproline - 9, 5-oxoproline]: the “% change in ALS” value by setting is: under setting [1], 13%; under setting [2], 13%. Further, the “Increase (+) or Decrease (−) in ALS” value is “+” under setting [3] and “+” under setting [4].
With `O=C(O)CCCCCCCCCCCO` [12-hydroxydodecanoic acid - 9, 12-hydroxydodecanoic acid], the “% change in ALS” value under setting [1] came to 0% and the “% change in ALS” value under setting [2] is 0%.
On to `Nc1ncnc2c1ncn2[C@@H]1O[C@H](CO)[C@@H](O)[C@H]1O` [Adenosine - 35, Adenosine], for which the “% change in ALS” value by setting is: under setting [1], 16%; under setting [2], 16%. Moreover, the “Increase (+) or Decrease (−) in ALS” value by setting is: under setting [3], “+”; under setting [4], “+”.
For `Nc1ncnc2c1ncn2[C@@H]1O[C@@H]2COP(=O)(O)O[C@H]2[C@H]1O` [Adenosine-3-5-cyclic-monophosphate - 35, Adenosine-3-5-cyclic-monophosphate], where the note is “human, in vivo”, the “% change in ALS” value is given as −8% and the “Increase (+) or Decrease (−) in ALS” value is “−”.
`C[C@H](N)C(=O)O` [Alanine - 9, Alanine]: the “% change in ALS” value is, setting by setting: under setting [1], 14%; under setting [2], 14%. Moreover, the “Increase (+) or Decrease (−) in ALS” value is reported as “+” under setting [3] and “+” under setting [4].
Consider `NC(=O)NC1NC(=O)NC1=O` (stereo not drawn) [Allantoin - 35, Allantoin], for which the “% change in ALS” value is 7% under setting [1] and 7% under setting [2]. Also, the “Increase (+) or Decrease (−) in ALS” value runs as follows: under setting [3], “+”; under setting [4], “+”.
Consider `N=C(N)NCCC[C@H](N)C(=O)O` [Arginine - 35, Arginine], for which the “% change in ALS” value by setting is: under setting [1], 7%; under setting [2], 7%. For the same molecule, the “Increase (+) or Decrease (−) in ALS” value reads like this: under setting [3], “+”; under setting [4], “+”.
For the molecule `CCCC(=O)O` [Butanoic acid - 9, Butanoic acid], the “% change in ALS” value under setting [1] was found to be 18% and the “% change in ALS” value under setting [2] was found to be 18%. For the same molecule, the “Increase (+) or Decrease (−) in ALS” value is “+” under setting [3] and “+” under setting [4].
For the molecule `NCCC(=O)N[C@@H](Cc1cnc[nH]1)C(=O)O` [Carnosine - 35, Carnosine], the “% change in ALS” value is recorded as −8% under setting [1] and −8% under setting [2]. Further, the “Increase (+) or Decrease (−) in ALS” value under setting [3] is on record as “−” and the “Increase (+) or Decrease (−) in ALS” value under setting [4] was “−”.
As to `CC(C)CCC[C@@H](C)[C@H]1CC[C@H]2[C@@H]3CC=C4C[C@@H](O)CC[C@]4(C)[C@H]3CC[C@]12C` [Cholesterol - 9, Cholesterol], the “% change in ALS” value by setting is: under setting [1], 5%; under setting [2], 5%. Besides, the “Increase (+) or Decrease (−) in ALS” value is on record as “+” under setting [3] and “+” under setting [4].
`O=C(O)CC(O)(CC(=O)O)C(=O)O` [Citric acid - 9, Citric acid]: the “% change in ALS” value amounted to 12% under setting [1] and 12% under setting [2]. In addition, the “Increase (+) or Decrease (−) in ALS” value under setting [3] is on record as “+” and the “Increase (+) or Decrease (−) in ALS” value under setting [4] is given as “+”.
Regarding `NC(=O)NCCC[C@H](N)C(=O)O` [Citrulline], the “Increase (+) or Decrease (−) in ALS” value under setting [4] is given as “+”.
With `Nc1ccn([C@@H]2O[C@H](CO)[C@@H](O)[C@H]2O)c(=O)n1` [Cytidine - 35, Cytidine], the “% change in ALS” value under setting [1] is −9% and the “% change in ALS” value under setting [2] is reported as −9%. In addition, the “Increase (+) or Decrease (−) in ALS” value reads like this: under setting [3], “−”; under setting [4], “−”.
With `N[C@@H](Cc1ccc(O)c(O)c1)C(=O)O` [DOPA - 9, DOPA], the “% change in ALS” value under setting [1] is listed as 3% and the “% change in ALS” value under setting [2] came out at 3%. The “Increase (+) or Decrease (−) in ALS” value is given as “+” under setting [3] and “+” under setting [4].
`CCCCCCCCCC(=O)O` [Decanoic acid - 9, Decanoic acid]: the “% change in ALS” value is listed as −6% under setting [1] and −6% under setting [2]. The “Increase (+) or Decrease (−) in ALS” value is, setting by setting: under setting [3], “−”; under setting [4], “−”.
As for `OC[C@@H](O)[C@H](O)[C@H](O)[C@@H](O)CO` [Dulcitol - 9, Dulcitol], the “% change in ALS” value was found to be 4% under setting [1] and 4% under setting [2]. Moreover, the “Increase (+) or Decrease (−) in ALS” value was “+” under setting [3] and “+” under setting [4].
Regarding `O=C(O)/C=C/C(=O)O` [Fumaric acid - 9, Fumaric acid], the “% change in ALS” value is, setting by setting: under setting [1], 7%; under setting [2], 7%. Moreover, the “Increase (+) or Decrease (−) in ALS” value is, setting by setting: under setting [3], “+”; under setting [4], “+”.
As to `N[C@@H](CCC(=O)N[C@@H](Cc1ccc(O)cc1)C(=O)O)C(=O)O` [Gamma-L-glutamyl-L-tyrosine - 35, Gamma-L-glutamyl-L-tyrosine], the “% change in ALS” value runs as follows: under setting [1], 18%; under setting [2], 18%. Besides, the “Increase (+) or Decrease (−) in ALS” value under setting [3] is reported as “+” and the “Increase (+) or Decrease (−) in ALS” value under setting [4] is given as “+”.
`O=C(O)[C@@H](O)[C@@H](O)[C@H](O)[C@@H](O)C(=O)O` [Glucarate - 35, Glucarate]: the “% change in ALS” value reads like this: under setting [1], 7%; under setting [2], 7%. In addition, the “Increase (+) or Decrease (−) in ALS” value by setting is: under setting [3], “+”; under setting [4], “+”.
For the molecule `O=C(O)[C@H](O)[C@@H](O)[C@H](O)[C@H](O)CO` [Gluconic acid - 9, Gluconic acid], the “% change in ALS” value is, setting by setting: under setting [1], 0%; under setting [2], 0%.
In the case of `N[C@@H](CCC(=O)O)C(=O)O` [Glutamic acid - 9, Glutamic acid], the “% change in ALS” value is 8% under setting [1] and 8% under setting [2]. The “Increase (+) or Decrease (−) in ALS” value reads like this: under setting [3], “+”; under setting [4], “+”.
Take `NC(=O)CC[C@H](N)C(=O)O` [Glutamine - 35, Glutamine]: the “% change in ALS” value under setting [1] was found to be 6% and the “% change in ALS” value under setting [2] is reported as 6%. Also, the “Increase (+) or Decrease (−) in ALS” value by setting is: under setting [3], “+”; under setting [4], “+”.
On to `O=C(O)C(O)CO` (stereo not drawn) [Glycerate - 9, Glycerate], for which the “% change in ALS” value reads like this: under setting [1], −6%; under setting [2], −6%. For the same molecule, the “Increase (+) or Decrease (−) in ALS” value under setting [3] was “−” and the “Increase (+) or Decrease (−) in ALS” value under setting [4] is “−”.
Turning to `OCC(O)CO` [Glycerol - 9, Glycerol], the “% change in ALS” value by setting is: under setting [1], 7%; under setting [2], 7%. Besides, the “Increase (+) or Decrease (−) in ALS” value by setting is: under setting [3], “+”; under setting [4], “+”.
For the molecule `O=P(O)(O)OC(CO)CO` [Glycerol-2-phosphate (previously Metabolite - 1573) - 35], the “% change in ALS” value under setting [1] stood at 16%. Besides, the “Increase (+) or Decrease (−) in ALS” value under setting [4] is on record as “+”.
As for `O=CC(=O)O` [Glyoxylate - 9, Glyoxylate], the “% change in ALS” value is −4% under setting [1] and −4% under setting [2]. Besides, the “Increase (+) or Decrease (−) in ALS” value by setting is: under setting [3], “−”; under setting [4], “−”.
Take `Nc1nc2c(ncn2[C@@H]2O[C@H](CO)[C@@H](O)[C@H]2O)c(=O)[nH]1` [Guanosine - 35, Guanosine]: the “% change in ALS” value was −3% under setting [1] and −3% under setting [2]. The “Increase (+) or Decrease (−) in ALS” value under setting [3] is listed as “−” and the “Increase (+) or Decrease (−) in ALS” value under setting [4] is reported as “−”.
On to `O=C1O[C@@H]([C@H](O)CO)[C@@H](O)[C@H]1O` [Gulono-1-4-lactone - 9, Gulono-1-4-lactone], for which the “% change in ALS” value came to 0% under setting [1] and 0% under setting [2].
As for `NCCc1c[nH]cn1` [Histamine - 35, Histamine], the “% change in ALS” value under setting [1] turned out to be 19% and the “% change in ALS” value under setting [2] is given as 19%. Further, the “Increase (+) or Decrease (−) in ALS” value reads like this: under setting [3], “+”; under setting [4], “+”.
As to `N[C@@H](Cc1c[nH]cn1)C(=O)O` [Histidine - 35, Histidine], the “% change in ALS” value under setting [1] is given as −10% and the “% change in ALS” value under setting [2] is −10%. Moreover, the “Increase (+) or Decrease (−) in ALS” value reads like this: under setting [3], “−”; under setting [4], “−”.
As to `O=C1CC(C(=O)O)NC(=O)N1` (stereo not drawn) [Hydroorotate - 9, Hydroorotate], the “% change in ALS” value is 2% under setting [1] and 2% under setting [2]. Further, the “Increase (+) or Decrease (−) in ALS” value is, setting by setting: under setting [3], “+”; under setting [4], “+”.
As to `OC[C@H]1O[C@@H](n2cnc3c(O)ncnc32)[C@H](O)[C@@H]1O` [Inosine - 35, Inosine], the “% change in ALS” value was found to be 2% under setting [1] and 2% under setting [2]. The “Increase (+) or Decrease (−) in ALS” value by setting is: under setting [3], “+”; under setting [4], “+”.
As for `O[C@H]1[C@H](O)[C@@H](O)[C@H](O)[C@@H](O)[C@H]1O` [Inositol - 9, Inositol], the “% change in ALS” value reads like this: under setting [1], 0%; under setting [2], 0%.
Regarding `CC[C@H](C)[C@H](N)C(=O)O` [Isoleucine - 9, Isoleucine], the “% change in ALS” value under setting [1] came out at 18% and the “% change in ALS” value under setting [2] was 18%. Moreover, the “Increase (+) or Decrease (−) in ALS” value under setting [3] is recorded as “+” and the “Increase (+) or Decrease (−) in ALS” value under setting [4] is recorded as “+”.
Regarding `CC(O)C(=O)O` (stereo not drawn) [Lactate (previously: Metaboiite-3316) - 35], the “% change in ALS” value under setting [1] amounted to 17%. For the same molecule, the “Increase (+) or Decrease (−) in ALS” value under setting [4] is on record as “+”.
Turning to `CC(O)C(=O)O` (stereo not drawn) [Lactate (previously: Metabolite - 2563) - 35], under setting [1], the “% change in ALS” value was found to be 18%. For the same molecule, the “Increase (+) or Decrease (−) in ALS” value under setting [4] is “+”.
Consider `CC(O)C(=O)O` (stereo not drawn) [Lactate (previously: Metabolite - 2694) - 35], for which the “% change in ALS” value under setting [1] came out at 14%. Besides, the “Increase (+) or Decrease (−) in ALS” value under setting [4] is recorded as “+”.
Regarding `O=C(O)CCCCC1CCSS1` (stereo not drawn) [Lipoate - 9, Lipoate], the “% change in ALS” value by setting is: under setting [1], −2%; under setting [2], −2%. The “Increase (+) or Decrease (−) in ALS” value by setting is: under setting [3], “−”; under setting [4], “−”.
On to `NCCCC[C@H](N)C(=O)O` [Lysine - 9, Lysine], for which the “% change in ALS” value is 17% under setting [1] and 17% under setting [2]. The “Increase (+) or Decrease (−) in ALS” value was “+” under setting [3] and “+” under setting [4].
